Reference: PubChem BioAssay AID1224830 (NIAID, 2016)
The deposit covers about 18,000 reagents; below is a random part of them. Of all reagents, about 2,900 (16%) got an active call. 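Calls are made per well; low scores hint the gene aids the LPS response, high scores that it dampens it.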 Entries without a mark were called inactive. Repeated entries: four replicate wells of each siRNA pool.

- Test: 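Regulators of TLR4 signalling towards TNF-alpha in macrophage-like cells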 (primary screen)
- System: human THP-1 monocytic leukaemia cells, TNF dual-luciferase reporter clone, PMA-differentiated to macrophage-like cells
- Reagent: siRNA pool against human genes, 50 nM
- Time to read-out: LPS for 4 h, given about 3 days after siRNA transfection
- Conditions: bacterial LPS (TLR4 ligand), 10 ng/ml
- Read-out: 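TNF firefly reporter luminescence divided by renilla, normalised to the plate median, then turned into a robust z-score for each replicate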
- Direction: TNF reporter robust z-score: higher = stronger TNF reporter response to LPS
- Call rule: 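Each well counts as active if its z-score is over 2.8 or under -1.5; controls are left without a call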

| gene symbol | TNF reporter robust z-score |
| --- | --- |
| PROZ (protein Z, vitamin K dependent plasma glycoprotein) | -0.13 |
| PROZ (protein Z, vitamin K dependent plasma glycoprotein) | 0.36 |
| PROZ (protein Z, vitamin K dependent plasma glycoprotein) | -0.11 |
| PROZ (protein Z, vitamin K dependent plasma glycoprotein) | -1.44 |
| ADAM18 (ADAM metallopeptidase domain 18) | 0.64 |
| ADAM18 (ADAM metallopeptidase domain 18) | 0.11 |
| ADAM18 (ADAM metallopeptidase domain 18) | -0.25 |
| ADAM18 (ADAM metallopeptidase domain 18) | -0.23 |
| EXOC6 (exocyst complex component 6) | -0.3 |
| EXOC6 (exocyst complex component 6) | 1.03 |
| EXOC6 (exocyst complex component 6) | -1.1 |
| EXOC6 (exocyst complex component 6) | 1.2 |
| OR10J5 (olfactory receptor family 10 subfamily J member 5) | -0.19 |
| OR10J5 (olfactory receptor family 10 subfamily J member 5) | 0.38 |
| OR10J5 (olfactory receptor family 10 subfamily J member 5) | -0.41 |
| OR10J5 (olfactory receptor family 10 subfamily J member 5) | 0.85 |
| CALM3 (calmodulin 3) | -1.32 |
| CALM3 (calmodulin 3) | -0.97 |
| CALM3 (calmodulin 3) | -0.25 |
| CALM3 (calmodulin 3) | 0.84 |
| TNS1 (tensin 1) | -0.38 |
| TNS1 (tensin 1) | 0.85 |
| TNS1 (tensin 1) | 0.62 |
| TNS1 (tensin 1) | 0.4 |
| PLA2G2E (phospholipase A2 group IIE) | -0.93 |
| PLA2G2E (phospholipase A2 group IIE) | -0.44 |
| PLA2G2E (phospholipase A2 group IIE) | 0.3 |
| PLA2G2E (phospholipase A2 group IIE) | -0.09 |
| NOD1 (nucleotide binding oligomerization domain containing 1) | 0.15 |
| NOD1 (nucleotide binding oligomerization domain containing 1) | 1.56 |
| NOD1 (nucleotide binding oligomerization domain containing 1) | 1.12 |
| NOD1 (nucleotide binding oligomerization domain containing 1) | 0.12 |
| DNAH1 (dynein axonemal heavy chain 1) | 0.97 |
| DNAH1 (dynein axonemal heavy chain 1) | 1.77 |
| DNAH1 (dynein axonemal heavy chain 1) | 1.03 |
| DNAH1 (dynein axonemal heavy chain 1) | 0.61 |
| TG (thyroglobulin) | -0.08 |
| TG (thyroglobulin) | 0.53 |
| TG (thyroglobulin) | 0.83 |
| TG (thyroglobulin) | 0.86 |
| TNFSF11 (TNF superfamily member 11) | 1.62 |
| TNFSF11 (TNF superfamily member 11) | 1.57 |
| TNFSF11 (TNF superfamily member 11) | -0.2 |
| TNFSF11 (TNF superfamily member 11) | -0.7 |
| DNAJB13 (DnaJ heat shock protein family (Hsp40) member B13) | -0.29 |
| DNAJB13 (DnaJ heat shock protein family (Hsp40) member B13) | 0.24 |
| DNAJB13 (DnaJ heat shock protein family (Hsp40) member B13) | 0.4 |
| DNAJB13 (DnaJ heat shock protein family (Hsp40) member B13) | 0.16 |
| FGF11 (fibroblast growth factor 11) | -0.19 |
| FGF11 (fibroblast growth factor 11) | -0.42 |
| FGF11 (fibroblast growth factor 11) | -0.4 |
| FGF11 (fibroblast growth factor 11) | -0.56 |
| EVI2A (ecotropic viral integration site 2A) | -0.16 |
| EVI2A (ecotropic viral integration site 2A) | -0.01 |
| EVI2A (ecotropic viral integration site 2A) | -1.39 |
| EVI2A (ecotropic viral integration site 2A) | -0.17 |
| OR4F17 (olfactory receptor family 4 subfamily F member 17) | 0.4 |
| OR4F17 (olfactory receptor family 4 subfamily F member 17) | -0.85 |
| OR4F17 (olfactory receptor family 4 subfamily F member 17) | -0.29 |
| OR4F17 (olfactory receptor family 4 subfamily F member 17) | 2.59 |
| P2RY11 (purinergic receptor P2Y11) | -0.82 |
| P2RY11 (purinergic receptor P2Y11) | -0.79 |
| P2RY11 (purinergic receptor P2Y11) | -0.91 |
| P2RY11 (purinergic receptor P2Y11) | -1.13 |
| APLNR (apelin receptor) | 1.15 |
| APLNR (apelin receptor) | 2.27 |
| APLNR (apelin receptor) | 0.63 |
| APLNR (apelin receptor) | -0.2 |
| STK38 (serine/threonine kinase 38) | 1.23 |
| STK38 (serine/threonine kinase 38) | 0.33 |
| STK38 (serine/threonine kinase 38) | 0.62 |
| STK38 (serine/threonine kinase 38) | 0.79 |
| RRM2B | 0.64 |
| RRM2B | 2.05 |
| RRM2B | 0.71 |
| RRM2B | 1.59 |
| CCDC102A (coiled-coil domain containing 102A) | -1.39 |
| CCDC102A (coiled-coil domain containing 102A) | -0.9 |
| CCDC102A (coiled-coil domain containing 102A) | -0.86 |
| CCDC102A (coiled-coil domain containing 102A) | -0.19 |
| PTPRF (protein tyrosine phosphatase receptor type F) | -0.12 |
| PTPRF (protein tyrosine phosphatase receptor type F) | -0.28 |
| PTPRF (protein tyrosine phosphatase receptor type F) | -0.92 |
| PTPRF (protein tyrosine phosphatase receptor type F) | -0.75 |
| UGT2B15 (UDP glucuronosyltransferase family 2 member B15) | -0.96 |
| UGT2B15 (UDP glucuronosyltransferase family 2 member B15) | -0.36 |
| UGT2B15 (UDP glucuronosyltransferase family 2 member B15) | -0.57 |
| UGT2B15 (UDP glucuronosyltransferase family 2 member B15) | 0.67 |
| LIMS1 (LIM zinc finger domain containing 1) | -0.37 |
| LIMS1 (LIM zinc finger domain containing 1) | 0.28 |
| LIMS1 (LIM zinc finger domain containing 1) | 0.09 |
| LIMS1 (LIM zinc finger domain containing 1) | 0.22 |
| GFI1B (growth factor independent 1B transcriptional repressor) | 1.16 |
| GFI1B (growth factor independent 1B transcriptional repressor) | 2.6 |
| GFI1B (growth factor independent 1B transcriptional repressor) | 1.32 |
| GFI1B (growth factor independent 1B transcriptional repressor) | 1.01 |
| CTNNA2 (catenin alpha 2) | 0.36 |
| CTNNA2 (catenin alpha 2) | 2.64 |
| CTNNA2 (catenin alpha 2) | 0.94 |
| CTNNA2 (catenin alpha 2) | 1.69 |
| CDC14A (cell division cycle 14A) | 0.38 |
| CDC14A (cell division cycle 14A) | 0.74 |
| CDC14A (cell division cycle 14A) | 0.08 |
| CDC14A (cell division cycle 14A) | 0.41 |
| LYRM7 (LYR motif containing 7) | 0.36 |
| LYRM7 (LYR motif containing 7) | -0.88 |
| LYRM7 (LYR motif containing 7) | -0.12 |
| LYRM7 (LYR motif containing 7) | 1.14 |
| H4C1 (H4 clustered histone 1) | -0.54 |
| H4C1 (H4 clustered histone 1) | -1.05 |
| H4C1 (H4 clustered histone 1) | -0.25 |

Records above whose gene name starts with G or g:
| gene symbol | TNF reporter robust z-score |
| --- | --- |
| GFI1B (growth factor independent 1B transcriptional repressor) | 1.16 |
| GFI1B (growth factor independent 1B transcriptional repressor) | 2.6 |
| GFI1B (growth factor independent 1B transcriptional repressor) | 1.32 |
| GFI1B (growth factor independent 1B transcriptional repressor) | 1.01 |
